These are yes or no findings as the source states them, for the method shown. In cells and extracts the contact can be indirect. Where a sequence is shown, tags or fusion partners need not be part of it.

Chains of the proteins cited; added tags and fusions are not shown.
UniProt Q9Y4X5: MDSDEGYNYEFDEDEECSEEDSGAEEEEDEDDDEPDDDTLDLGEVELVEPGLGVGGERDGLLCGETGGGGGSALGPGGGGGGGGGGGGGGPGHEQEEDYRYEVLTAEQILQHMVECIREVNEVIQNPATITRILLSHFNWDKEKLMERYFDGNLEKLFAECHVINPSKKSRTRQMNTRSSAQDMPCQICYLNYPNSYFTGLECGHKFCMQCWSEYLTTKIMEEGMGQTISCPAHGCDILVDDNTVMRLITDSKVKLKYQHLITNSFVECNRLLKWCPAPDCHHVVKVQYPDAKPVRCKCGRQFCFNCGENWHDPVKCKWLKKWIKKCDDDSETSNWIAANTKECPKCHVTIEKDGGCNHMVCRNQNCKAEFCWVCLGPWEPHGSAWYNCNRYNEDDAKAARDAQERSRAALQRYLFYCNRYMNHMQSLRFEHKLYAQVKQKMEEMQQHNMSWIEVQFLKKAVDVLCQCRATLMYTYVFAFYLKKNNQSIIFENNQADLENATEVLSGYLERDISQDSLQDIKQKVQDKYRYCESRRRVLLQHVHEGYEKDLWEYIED

The target in one assay is FLAG-ARIH1 (human) (UniProt Q9Y4X5). The experiment in a line: co-IP.
Assay [1] has as its target FLAG-ARIH1 (human), Q9Y4X5. As to the kind of experiment: co-IP. Particulars: remark: other sources report otherwise.

B1: HA-TBK1 (protein, UniProt Q9UHD2 1-729)
chain: MQSTSNHLWLLSDILGQGATANVFRGRHKKTGDLFAIKVFNNISFLRPVDVQMREFEVLKKLNHKNIVKLFAIEEETTTRHKVLIMEFCPCGSLYTVLEEPSNAYGLPESEFLIVLRDVVGGMNHLRENGIVHRDIKPGNIMRVIGEDGQSVYKLTDFGAARELEDDEQFVSLYGTEEYLHPDMYERAVLRKDHQKKYGATVDLWSIGVTFYHAATGSLPFRPFEGPRRNKEVMYKIITGKPSGAISGVQKAENGPIDWSGDMPVSCSLSRGLQVLLTPVLANILEADQEKCWGFDQFFAETSDILHRMVIHVFSLQQMTAHKIYIHSYNTATIFHELVYKQTKIISSNQELIYEGRRLVLEPGRLAQHFPKTTEENPIFVVSREPLNTIGLIYEKISLPKVHPRYDLDGDASMAKAITGVVCYACRIASTLLLYQELMRKGIRWLIELIKDDYNETVHKKTEVVITLDFCIRNIEKTVKVYEKLMKINLEAAELGEISDIHTKLLRLSSSQGTIETSLQDIDSRLSPGGSLADAWAHQEGTHPKDRNVEKLQVLLNCMTEIYYQFKKDKAERRLAYNEEQIHKFDKQKLYYHATKAMTHFTDECVKKYEAFLNKSEEWIRKMLHLRKQLLSLTNQCFDIEEEVSKYQEYTNELQETLPQKMFTASSGIKHTMTPIYPSSNTLVEMTLGMKKLKEEMEGVVKELAENNHILERFGSLTMDGGLRNVDCL
For the molecule B1, in the assay with FLAG-ARIH1 (human), the binding entry is “no binding”.

B2: HA-RIG-I, O95786 1-925 (protein)
chain: MTTEQRRSLQAFQDYIRKTLDPTYILSYMAPWFREEEVQYIQAEKNNKGPMEAATLFLKFLLELQEEGWFRGFLDALDHAGYSGLYEAIESWDFKKIEKLEEYRLLLKRLQPEFKTRIIPTDIISDLSECLINQECEEILQICSTKGMMAGAEKLVECLLRSDKENWPKTLKLALEKERNKFSELWIVEKGIKDVETEDLEDKMETSDIQIFYQEDPECQNLSENSCPPSEVSDTNLYSPFKPRNYQLELALPAMKGKNTIICAPTGCGKTFVSLLICEHHLKKFPQGQKGKVVFFANQIPVYEQQKSVFSKYFERHGYRVTGISGATAENVPVEQIVENNDIIILTPQILVNNLKKGTIPSLSIFTLMIFDECHNTSKQHPYNMIMFNYLDQKLGGSSGPLPQVIGLTASVGVGDAKNTDEALDYICKLCASLDASVIATVKHNLEELEQVVYKPQKFFRKVESRISDKFKYIIAQLMRDTESLAKRICKDLENLSQIQNREFGTQKYEQWIVTVQKACMVFQMPDKDEESRICKALFLYTSHLRKYNDALIISEHARMKDALDYLKDFFSNVRAAGFDEIEQDLTQRFEEKLQELESVSRDPSNENPKLEDLCFILQEEYHLNPETITILFVKTRALVDALKNWIEGNPKLSFLKPGILTGRGKTNQNTGMTLPAQKCILDAFKASGDHNILIATSVADEGIDIAQCNLVILYEYVGNVIKMIQTRGRGRARGSKCFLLTSNAGVIEKEQINMYKEKMMNDSILRLQTWDEAVFREKILHIQTHEKFIRDSQEKPKPVPDKENKKLLCRKCKALACYTADVRVIEECHYTVLGDAFKECFVSRPHPKPKQFSSFEKRAKIFCARQNCSHDWGIHVKYKTFEIPVIKIESFVVEDIATGVQTLYSKWKDFHFEKIPFDPAEMSK
Take B2: the binding entry in assay [1] is given as “no binding”.

B3: HA-IRF3 (protein, UniProt Q14653 1-427)
chain: MGTPKPRILPWLVSQLDLGQLEGVAWVNKSRTRFRIPWKHGLRQDAQQEDFGIFQAWAEATGAYVPGRDKPDLPTWKRNFRSALNRKEGLRLAEDRSKDPHDPHKIYEFVNSGVGDFSQPDTSPDTNGGGSTSDTQEDILDELLGNMVLAPLPDPGPPSLAVAPEPCPQPLRSPSLDNPTPFPNLGPSENPLKRLLVPGEEWEFEVTAFYRGRQVFQQTISCPEGLRLVGSEVGDRTLPGWPVTLPDPGMSLTDRGVMSYVRHVLSCLGGGLALWRAGQWLWAQRLGHCHTYWAVSEELLPNSGHGPDGEVPKDKEGGVFDLGPFIVDLITFTEGSGRSPRYALWFCVGESWPQDQPWTKRLVMVKVVPTCLRALVEMARVGGASSLENTVDLHISNSHPLSLTSDQYKAYLQDLVEGMDFQGPGES
Turning to B3, the binding entry in the assay with FLAG-ARIH1 (human) was “no binding”.

These data come from paper PMC9551088.
